Test results reported in patent publication US20130190327A1, “BIS-FATTY ACID CONJUGATES AND THEIR USES” (CATABASIS PHARMACEUTICALS INC, priority 2010, published 2013).
At least one structure is not confirmed: it was looked up by name or label, or the drawing left a doubt.

System: IL-1β
Test: IL-1β transcript levels in LPS-stimulated RAW264.7 macrophages
Type: cell-based
Conditions: dosed at 0, 50 and 100 μM, LPS stimulation, FIG. 2

With `CC/C=C\C/C=C\C/C=C\C/C=C\C/C=C\C/C=C\CCC(=O)NCCNC(=O)CCCC[C@@H]1CCSS1` [I-98, (4Z,7Z,10Z,13Z,16Z,19Z)-docosa-4,7,10,13,16,19-hexaenoic acid [2-((R)-5-[1,2]dithiolan-3-yl-pentanoylamino)-ethyl]-amide] the IL-1β gene expression was “decrease”.
